Laboratory results from PubChem BioAssay AID2551 (National Center for Advancing Translational Sciences (NCATS), 2010).
In all, about 310,000 compounds went through this assay and about 17,000 (5.5%) were called active. The inconclusive results got no clear call from the source; some entries with a clear call stand among them for comparison. Calls come from the whole dose curve; as a rule, active = well fitted inhibition curve with a large enough effect; inconclusive = small, poorly fitted or top-dose-only effect, or effect the other way; inactive = no such curve, though single readings can be large or run the other way. A potency beside an inconclusive call is a rough fit, not a confirmed value.

Chains of the proteins cited; added tags and fusions are not shown. Lines headed by an entry give the natural chain unless they say otherwise; changes in a name come on top.
UniProt P51450: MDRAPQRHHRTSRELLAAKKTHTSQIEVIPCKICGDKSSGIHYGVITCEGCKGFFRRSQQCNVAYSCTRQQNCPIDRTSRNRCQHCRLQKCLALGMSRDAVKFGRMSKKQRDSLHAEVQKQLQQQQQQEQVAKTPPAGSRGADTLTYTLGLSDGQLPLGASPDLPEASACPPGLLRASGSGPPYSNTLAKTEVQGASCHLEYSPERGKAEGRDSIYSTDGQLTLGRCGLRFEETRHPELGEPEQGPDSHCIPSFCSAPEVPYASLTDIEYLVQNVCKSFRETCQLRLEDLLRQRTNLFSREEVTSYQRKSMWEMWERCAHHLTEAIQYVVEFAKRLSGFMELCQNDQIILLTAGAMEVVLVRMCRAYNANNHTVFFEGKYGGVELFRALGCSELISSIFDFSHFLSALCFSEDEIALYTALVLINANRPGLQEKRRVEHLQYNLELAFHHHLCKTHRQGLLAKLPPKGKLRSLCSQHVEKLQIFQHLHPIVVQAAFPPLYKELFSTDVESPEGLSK

target: Nuclear receptor ROR-gamma (Mus musculus) (UniProt P51450); assay: qHTS for inhibitors of ROR gamma transcriptional activity; settings: Drosophila S2 Gal4-RORgamma UAS-luciferase reporter, 20 h; activity change, negative = inhibition: at 53.6 µM (top of the series); note: nearly all actives have a fitted effect of over 60% in size
Outline: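 Luminescence from a UAS-regulated Photinus luciferase reporter in stably transfected Drosophila Schneider cells is measured; decreased signal marks ROR gamma inhibition. Fusion expression is induced by 700 uM copper sulfate for 20 hr.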
% is set by controls: 0 for no effect and ±100 for the full control effect; potency is the fitted concentration of half-maximal effect.

Structure (SMILES) | Potency | activity change, negative = inhibition
Cc1cccc(CNc2ccnc(-c3cccc(C#N)c3)n2)c1 | inconclusive: 14.1 µM [activator, single point] | 
CCOC(=O)/C(=N\Nc1ccccc1)S(=O)(=O)c1ccccc1 | inconclusive: 35.5 µM [inhibitor, single point] | 
O=C1c2ccccc2C(=O)c2c1ncn2-c1ccccc1 | active: 11.2 µM | 
C(=N\Nc1nc2ccccc2[nH]1)/c1ccccc1 | active: 10 µM | 
CCn1c2ccccc2c2nnc(SCc3cc(=O)n4ccsc4n3)nc21 |  | inactive: 22.6%
Cc1ccccc1NC(=O)C1CCCN(C(=O)NCc2ccccc2)C1 (stereo unspecified) | inconclusive: 10 µM [activator, partial curve] | 
Cc1ccc(/C=N/Nc2ccc(Cl)nn2)cc1 | inconclusive: 15.8 µM [activator, single point] | 
Cc1cc(C(=O)NC2CC(C)(C)Cc3c2cnn3-c2ccc(F)cc2)nn1C (stereo unspecified) | inconclusive: 20 µM [activator, partial curve] | 
Cc1cc(C)c(C)c(S(=O)(=O)N2CCC(C(=O)Nc3ccc(S(=O)(=O)N4CCOCC4)cc3)CC2)c1C | inconclusive: 35.5 µM [activator, single point] | 
COc1ccc2cc(C3CC(c4cccs4)=NN3S(C)(=O)=O)c(Cl)nc2c1 (stereo unspecified) | inconclusive: 11.2 µM [activator, partial curve] | 
COc1ccccc1NS(=O)(=O)c1cccc(C(=O)OCC(=O)Nc2cc(C)on2)c1 | active: 11.2 µM | 
CCOC(=O)C(=Cc1ccc(-n2ccnc2)cc1)C(=O)OCC | inconclusive: 35.5 µM [inhibitor, single point] | 
CC(=O)O[C@H]1C(=O)[C@@]2(C)C([C@H](OC(=O)c3ccccc3)[C@]3(O)C[C@H](OC(=O)[C@H](O)[C@@H](NC(=O)c4ccccc4)c4ccccc4)C(C)=C1C3(C)C)[C@]1(OC(C)=O)CO[C@@H]1C[C@H]2O (stereo partly specified) | inconclusive: 3.16 µM [activator, single point] | 
O=C(CCCn1c(=S)[nH]c2ccsc2c1=O)NC1CCCCC1 | active: 20 µM | 
Cc1nn(-c2ccccc2)c2c1C(c1ccco1)C(C#N)=C(N)O2 (stereo unspecified) | inconclusive: 15.8 µM [inhibitor, single point] | 
S=C(NCc1cccs1)Nc1cc(Cl)cc(Cl)c1 | active: 12.6 µM | 
COc1ccc(Nc2ncnc3sc(-c4ccccc4)cc23)cc1OC |  | inactive: -1.07%
CCOC(=O)N/N=C(\C)c1ccc(OC(F)F)cc1OC(F)F | inconclusive: 31.6 µM [activator, single point] | 
COc1cccc(C=Nc2ccc3c(c2)CCC3)c1O | inconclusive: 12.6 µM [inhibitor, partial curve] | 
COc1ccc(-c2nsc3c(N4CCCCC4)ncnc23)cc1 | active: 1.12 µM | 
CCOC(=O)c1[nH]cnc1C(=O)Nc1ccc(F)cc1 | inconclusive: 22.4 µM [inhibitor, single point] | 
N#C/C(=C(/O)COC(=O)CCC1CCCCC1)c1nc2ccccc2[nH]1 | active: 11.2 µM | 
CN(C)c1nc(NCc2ccccc2)nc(SCC(=O)Nc2ccccc2)n1 | inconclusive: 12.6 µM [activator, single point] | 

Structure (SMILES) | Potency | activity change, negative = inhibition
CCNc1ncc2nc(-c3cc(F)cc(F)c3)c(=O)n(CCc3ccccc3)c2n1 |  | inactive: 24%
COc1ccccc1-c1cc(C(=O)NCc2ccccc2)no1 | inconclusive: 17.8 µM [activator, single point] | 
Cc1cnc(NC(=O)c2c(-c3ccccc3)noc2C)s1 | inconclusive: 31.6 µM [inhibitor, single point] | 
CCOc1ccc(-c2c(C(=O)N/N=C/c3c[nH]c4ccccc34)nnn2-c2nonc2N)cc1 | inconclusive: 22.4 µM [inhibitor, single point] | 
CCN(CC)S(=O)(=O)c1ccc(C)c(NC(=S)NC2CCCCC2)c1 | active: 10 µM | 
Cc1cc(C)n(CCc2nc(-c3cc4ccccc4o3)cs2)n1 | inconclusive: 10 µM [inhibitor, partial curve, poor fit] | 
Cc1ccc(NC(=S)Nc2cccc(-c3n[nH]c(=S)o3)c2)cc1 | inconclusive: 35.5 µM [inhibitor, partial curve, poor fit] | 
O=[N+]([O-])c1ccc(O)c(/C=N/Nc2nn[nH]n2)c1 | inconclusive: 12.6 µM [inhibitor, single point] | 
CN(C)S(=O)(=O)c1cccc(NC(=S)Nc2ccc(Cl)cc2Cl)c1 | active: 20 µM | 
CCc1nnc(NC(=O)CSc2nccn2-c2cc(C)cc(C)c2)s1 | active: 17.8 µM | 
O=C(NNC(=S)Nc1ccccc1)C1CC1 | inconclusive: 0.355 µM [inhibitor, full curve] | 
C=C1CCN([C@@H](C)C(=O)NCc2ccc(OC)cc2)S(=O)(=O)c2ccccc21 |  | inactive: 41.6%
Cc1ccccc1OCC(=O)N1N=C(C(F)(F)F)CC1(O)C(C)(C)C (stereo unspecified) | inconclusive: 35.5 µM [inhibitor, single point] | 
COc1ccccc1Oc1ccc(NC(=O)c2ccccc2C)cc1 | inconclusive: 17.8 µM [activator, single point] | 
N#C/C(=C\c1cccnc1)C(=O)Nc1cccc2ccccc12 | inconclusive: 25.1 µM [inhibitor, single point] | 
O=C1C(Cc2c[nH]c3ccccc23)NC(=S)N1C1CCCCC1 (stereo unspecified) | active: 20 µM | 
COc1ccc(NS(=O)(=O)c2cccc3nonc23)c(OC)c1 | inconclusive: 35.5 µM [activator, single point] | 
O=C(NCC(=O)N1CCOCC1)c1ccccc1 |  | inactive: 17.9%
O=[N+]([O-])c1ccc(Sc2nnnn2-c2ccccc2)nc1 | active: 3.55 µM | 
CC(C)OC(=O)c1cccnc1SCC(=O)N(C)c1ccccc1 |  | inactive: 37.2%
Cc1nn(C)c(C(=O)NNC(=S)NC2CCCCC2)c1Br | inconclusive: 20 µM [inhibitor, partial curve, poor fit] | 
Cc1ccc(/C=N/N2CCN(Cc3ccccc3)CC2)o1 |  | inactive: -3.31%
CCCn1c(C)cc(C(=O)COC(=O)c2c(C)nn(-c3ccccc3)c2C)c1C | inconclusive: 3.55 µM [inhibitor, single point] | 

Nothing new here: entries from further up.
Structure (SMILES) | Potency | activity change, negative = inhibition
C(=N\Nc1nc2ccccc2[nH]1)/c1ccccc1 | active: 10 µM | 
CCn1c2ccccc2c2nnc(SCc3cc(=O)n4ccsc4n3)nc21 |  | inactive: 22.6%
